We go through 42 sequences from paper PMC7819943, “Rice protein-binding microarrays: a tool to detect cis-acting elements near promoter regions in rice”.

The list shows a part of the results.

This assay concerns the target T1, OsSMF1 (Oryza sativa, UniProt Q6ZLB0 1-436).
T1 sequence: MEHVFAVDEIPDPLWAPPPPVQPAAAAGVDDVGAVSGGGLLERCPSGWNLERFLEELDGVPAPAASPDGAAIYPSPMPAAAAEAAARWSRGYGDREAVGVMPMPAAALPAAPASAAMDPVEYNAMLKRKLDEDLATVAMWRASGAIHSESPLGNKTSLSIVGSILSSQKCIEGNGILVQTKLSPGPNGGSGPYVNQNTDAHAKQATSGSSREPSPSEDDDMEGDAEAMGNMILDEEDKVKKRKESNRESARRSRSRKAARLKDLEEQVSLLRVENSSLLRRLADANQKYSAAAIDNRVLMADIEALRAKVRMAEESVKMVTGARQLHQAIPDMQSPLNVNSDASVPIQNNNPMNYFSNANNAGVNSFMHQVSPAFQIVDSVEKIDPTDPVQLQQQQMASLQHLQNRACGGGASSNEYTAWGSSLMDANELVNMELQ
Nature of the assay: protein-binding microarray (RPBM); PBS, 2% BSA, 51.3 ng/ul salmon testes DNA, 50 uM zinc acetate, 200 nM TF, 25 C, 1 h; high values mean tight binding. As to conditions: protein: recombinant; tags: N-terminal polyhistidine and DsRed monomer fusion (pET32a); chain copies: 2; label: CyDye5-dUTP incorporated in the synthesized complementary strand; 3' TTTTT single-stranded linker to array surface; dsDNA, one strand shown. Summed up: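 The binding signal for each feature is its fluorescence intensity in arbitrary units. An Axon 4000B scanner was used to read a custom Agilent array that had been made double-stranded with Cy5-dUTP primer extension, blocked with 2% BSA, incubated at 25 °C for 1 h with 200 nM protein in PBS, 2% BSA, salmon testes DNA and 50 µM zinc acetate, and washed. The protein was an N-terminal polyhistidine–DsRed transcription factor fusion from E. coli BL21-CodonPlus, purified on Ni–NTA.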
Turning to “GGGAAACGAGTCAAGCTGACGTGTGCAAGAATCTCCTACACGGAGTCACCTAGTGCAG”, the binding signal is 13500 fluorescence intensity (a.u.).
Turning to “ACTCCCCATGCATGGACATGTGCATAATGCGTGCGTCGCCCGGAGTCACCTAGTGCAG”, the binding signal is 3240 fluorescence intensity (a.u.).
Then “ATATTTGGTCCCACCTGTCATACACATATTACGTATTGGACGGAGTCACCTAGTGCAG”, with 3860 fluorescence intensity (a.u.); and “TAAGCGAAGCATACCTGACGTGTTAGCTCATTGTAACTCGCGGAGTCACCTAGTGCAG”, with 9900 fluorescence intensity (a.u.).
Then “AATAACTGATGACTGTGAATGATTGATACGATGTAGTAGGCGGAGTCACCTAGTGCAG”, with 4020 fluorescence intensity (a.u.).
On to “CCCACAGACCCTCGGGTCCACATGTCAGTCTGCAGTACTTCGGAGTCACCTAGTGCAG”, for which the binding signal is 3600 fluorescence intensity (a.u.).
“GATTACCTGATTACCTGATTACCTGTGTCACTGACAACTCCGGAGTCACCTAGTGCAG”: the binding signal is 4430 fluorescence intensity (a.u.).
Under “TTGGATTGCAGTGGGGCGGACGGCGGTGGGCGGGGCTTCTCGGAGTCACCTAGTGCAG” stands 5880 fluorescence intensity (a.u.); under “TGACCTGATTACTGACTGACTAATGAGGTGATGCAGATTTCGGAGTCACCTAGTGCAG”, 3200 fluorescence intensity (a.u.); under “CCGCGGTGGCTCCGGCCCAGCCCGCCTGAACCCTAGAGGGCGGAGTCACCTAGTGCAG”, 5540 fluorescence intensity (a.u.).
For the sequence “CAAATTAACTACGTAGTAGTGCCACGTCAGCCTAAAATCGCGGAGTCACCTAGTGCAG”, the binding signal is 33300 fluorescence intensity (a.u.).
Then “GATCCAACCATCCACGTGGCCCTGTGTGCCGACCCTTCCACGGAGTCACCTAGTGCAG”, with 14700 fluorescence intensity (a.u.); and “CCCAACCGCCGTCCACCACCTCCAAACTCCAAAGCCCTTTCGGAGTCACCTAGTGCAG”, with 3800 fluorescence intensity (a.u.); and “ACCACTACGCCTCCACCTCCACACCTCACCTCCTCCACCTCGGAGTCACCTAGTGCAG”, with 3840 fluorescence intensity (a.u.).
Under “GGGGCCCACATGTCATTCTCACCGACGCCCCATCCCTTCTCGGAGTCACCTAGTGCAG” stands 3530 fluorescence intensity (a.u.); under “GGGGAAAGAGAGAGGGTGATGACGTGAACACCTTGACACACGGAGTCACCTAGTGCAG”, 4870 fluorescence intensity (a.u.); under “TGGACCGGGTCAATTTGCCACATCATTAAACTAATCATCCCGGAGTCACCTAGTGCAG”, 9940 fluorescence intensity (a.u.).
Under “ATAGTTCCAAACCAGCTGAGCTCAGCCTTGTACACTGAACCGGAGTCACCTAGTGCAG” stands 3610 fluorescence intensity (a.u.); under “AGGCGATAAACCCAACATACTCCAACATCACAGCCACACCCGGAGTCACCTAGTGCAG”, 17300 fluorescence intensity (a.u.).
With “GAAATTCTCGTAATTATGAATCATCCCGTACTATTCGCAGCGGAGTCACCTAGTGCAG”, the binding signal was 3780 fluorescence intensity (a.u.).
Then “TGTTCATCCGTCGTCAGACCTGTTACCAGATCTGGACTTCCGGAGTCACCTAGTGCAG”, with 4620 fluorescence intensity (a.u.); and “CGTTGTCGCCACCACCACCGCCGCCGTCGCCACAACTCCGCGGAGTCACCTAGTGCAG”, with 3220 fluorescence intensity (a.u.).
Take “CCGTCCAAAACTACCCATCTGCCACGTGGCACCCGCCCATCGGAGTCACCTAGTGCAG”: the binding signal was 29800 fluorescence intensity (a.u.).
Then “GGCGCCACGCTCCTCCTCCTCGACGTGCCCCAGCGCACCCCGGAGTCACCTAGTGCAG”, with 3540 fluorescence intensity (a.u.).
Consider “CCGGTGCCGTCGTGTCGTTCGCCGTCTGCAAGCACATAGTCGGAGTCACCTAGTGCAG”, for which the binding signal is 4940 fluorescence intensity (a.u.).
Regarding “CGACCACATCGGATGTGGATTAATATATTCCTCGAGGGACCGGAGTCACCTAGTGCAG”, the binding signal was 19800 fluorescence intensity (a.u.).
Under “CCCGGCAGCCGCAGGCGACTCTGTCTCCGCGCGCTCGAGCCGGAGTCACCTAGTGCAG” stands 26400 fluorescence intensity (a.u.).
Under “CGGGGCGGCCGCAGCCGCCGTCGCCGTCGCCGTCGCCATTCGGAGTCACCTAGTGCAG” stands 3140 fluorescence intensity (a.u.); under “CGATTAATGTGGGAATTTCTAGCCCTCACAACGAACGTGGCGGAGTCACCTAGTGCAG”, 3160 fluorescence intensity (a.u.); under “TTATGTAATTAACTTAAATACAAATTTCCTGTAATAGTTGCGGAGTCACCTAGTGCAG”, 4420 fluorescence intensity (a.u.).
With “AGGTCTGGTTAGTGTTACAATAGAGGCGTGGAGCATAAACCGGAGTCACCTAGTGCAG”, the binding signal was 24600 fluorescence intensity (a.u.).
Regarding “GATTAAACAGCAAGTAGTGTACTAGTGTCACTTTTCCTTGCGGAGTCACCTAGTGCAG”, the binding signal was 3660 fluorescence intensity (a.u.).
For “GCCGAACAGATAAAGGCCACGTCTTTTCTTTTGCTTTCTCCGGAGTCACCTAGTGCAG”, the binding signal was 4290 fluorescence intensity (a.u.).
For the sequence “CTTGGTGTCGACATCACCCGTTCGAGTCACTGGTGATGCACGGAGTCACCTAGTGCAG”, the binding signal is 5320 fluorescence intensity (a.u.).
As for “GCAACAGAAAGAGAATCACCACGGGACAAAGGCGGTGACGCGGAGTCACCTAGTGCAG”, the binding signal was 4200 fluorescence intensity (a.u.).
Turning to “ACGCGCGGGCGTGGCTGACGTGGCCCGGAGAAGGCGGAGGCGGAGTCACCTAGTGCAG”, the binding signal was 5770 fluorescence intensity (a.u.).
For “ATACCTGTCTGCCCAAAAGTTGCAGGTGACGATGGTGCAACGGAGTCACCTAGTGCAG”, the binding signal was 3290 fluorescence intensity (a.u.).
Consider “CGGCGCTGACACCGCCGCCGCCACCGCCATCTCCGGCGAACGGAGTCACCTAGTGCAG”, for which the binding signal is 3270 fluorescence intensity (a.u.).
Then “TCGCATCCACACCTGTTTCCATCGTCCGTCACCACGTGCACGGAGTCACCTAGTGCAG”, with 5800 fluorescence intensity (a.u.); and “GTTGTATTCAACGACCAGTGGCGTCCCTGTGCCGGACCTTCGGAGTCACCTAGTGCAG”, with 3200 fluorescence intensity (a.u.); and “GTCAACAAAGCTCACCCACGTACATATGTAGTGGCATTTCCGGAGTCACCTAGTGCAG”, with 5910 fluorescence intensity (a.u.).
For the sequence “GGATCTGGAAGAGTGGAAGGACGATGACTCAGGCGACCATCGGAGTCACCTAGTGCAG”, the binding signal was 6730 fluorescence intensity (a.u.).
